This passage reports binding results from PMC6075789, “Comparative proteomics of the two T. brucei PABPs suggests that PABP2 controls bulk mRNA” (PLoS Neglected Tropical Diseases, 2018).

Amino acid sequences for entries named in this document (tags omitted). A change or cut given only in a name is not applied to a line headed by its entry.
UniProt O96971: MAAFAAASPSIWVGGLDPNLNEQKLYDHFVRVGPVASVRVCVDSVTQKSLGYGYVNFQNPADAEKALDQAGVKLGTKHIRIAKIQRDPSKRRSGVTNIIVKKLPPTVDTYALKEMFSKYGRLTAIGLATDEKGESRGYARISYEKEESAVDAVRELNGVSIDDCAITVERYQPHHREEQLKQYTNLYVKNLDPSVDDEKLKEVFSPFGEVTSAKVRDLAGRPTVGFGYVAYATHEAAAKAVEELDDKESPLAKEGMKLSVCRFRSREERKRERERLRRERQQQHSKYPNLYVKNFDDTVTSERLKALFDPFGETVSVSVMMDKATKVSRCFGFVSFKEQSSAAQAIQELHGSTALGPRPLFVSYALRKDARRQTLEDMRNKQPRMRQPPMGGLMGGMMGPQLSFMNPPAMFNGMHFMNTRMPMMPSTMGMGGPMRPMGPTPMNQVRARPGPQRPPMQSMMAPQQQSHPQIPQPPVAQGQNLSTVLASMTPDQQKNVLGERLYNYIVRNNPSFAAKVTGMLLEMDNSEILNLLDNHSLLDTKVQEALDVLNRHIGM
UniProt Q384Z7: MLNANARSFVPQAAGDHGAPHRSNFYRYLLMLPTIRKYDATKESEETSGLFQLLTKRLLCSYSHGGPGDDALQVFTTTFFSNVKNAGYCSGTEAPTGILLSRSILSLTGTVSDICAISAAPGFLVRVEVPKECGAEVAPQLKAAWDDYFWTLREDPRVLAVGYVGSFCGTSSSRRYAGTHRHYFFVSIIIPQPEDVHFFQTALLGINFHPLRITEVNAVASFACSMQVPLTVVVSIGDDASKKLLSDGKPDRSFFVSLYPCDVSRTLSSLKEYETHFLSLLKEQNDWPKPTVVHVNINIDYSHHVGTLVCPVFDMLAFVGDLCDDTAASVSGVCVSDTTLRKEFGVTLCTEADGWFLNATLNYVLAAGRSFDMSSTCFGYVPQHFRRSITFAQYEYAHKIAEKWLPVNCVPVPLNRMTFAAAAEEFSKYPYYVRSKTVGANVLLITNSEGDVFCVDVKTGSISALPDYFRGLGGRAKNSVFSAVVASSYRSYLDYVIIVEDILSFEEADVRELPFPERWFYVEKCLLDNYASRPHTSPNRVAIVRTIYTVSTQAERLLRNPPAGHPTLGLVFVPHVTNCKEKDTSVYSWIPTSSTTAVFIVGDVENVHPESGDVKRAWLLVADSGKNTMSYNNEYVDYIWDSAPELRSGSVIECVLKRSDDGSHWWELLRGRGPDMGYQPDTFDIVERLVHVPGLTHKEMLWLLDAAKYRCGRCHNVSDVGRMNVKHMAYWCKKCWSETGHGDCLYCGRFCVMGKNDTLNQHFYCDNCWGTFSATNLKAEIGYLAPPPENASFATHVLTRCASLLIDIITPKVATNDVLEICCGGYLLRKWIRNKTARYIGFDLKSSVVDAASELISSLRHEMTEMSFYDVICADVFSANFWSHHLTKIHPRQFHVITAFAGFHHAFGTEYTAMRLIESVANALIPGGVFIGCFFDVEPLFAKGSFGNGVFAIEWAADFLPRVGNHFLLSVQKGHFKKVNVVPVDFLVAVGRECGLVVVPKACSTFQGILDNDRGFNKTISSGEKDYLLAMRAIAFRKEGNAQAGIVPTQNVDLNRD
UniProt Q38F76: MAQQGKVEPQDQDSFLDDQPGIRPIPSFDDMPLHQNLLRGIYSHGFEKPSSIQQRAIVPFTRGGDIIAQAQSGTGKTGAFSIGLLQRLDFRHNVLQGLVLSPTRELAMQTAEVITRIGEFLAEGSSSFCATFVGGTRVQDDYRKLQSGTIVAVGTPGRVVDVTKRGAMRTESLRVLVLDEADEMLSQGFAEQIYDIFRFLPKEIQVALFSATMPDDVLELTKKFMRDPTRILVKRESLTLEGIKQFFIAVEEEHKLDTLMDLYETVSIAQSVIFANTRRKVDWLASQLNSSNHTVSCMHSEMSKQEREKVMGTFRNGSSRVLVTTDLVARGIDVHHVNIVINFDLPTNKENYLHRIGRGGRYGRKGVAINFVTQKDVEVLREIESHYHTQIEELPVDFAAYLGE
UniProt Q38B99: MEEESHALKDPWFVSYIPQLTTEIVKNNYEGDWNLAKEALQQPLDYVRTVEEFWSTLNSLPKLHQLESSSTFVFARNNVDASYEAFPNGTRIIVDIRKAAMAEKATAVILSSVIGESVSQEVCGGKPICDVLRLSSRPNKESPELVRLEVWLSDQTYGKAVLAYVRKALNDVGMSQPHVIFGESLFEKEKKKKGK
UniProt Q57VB4: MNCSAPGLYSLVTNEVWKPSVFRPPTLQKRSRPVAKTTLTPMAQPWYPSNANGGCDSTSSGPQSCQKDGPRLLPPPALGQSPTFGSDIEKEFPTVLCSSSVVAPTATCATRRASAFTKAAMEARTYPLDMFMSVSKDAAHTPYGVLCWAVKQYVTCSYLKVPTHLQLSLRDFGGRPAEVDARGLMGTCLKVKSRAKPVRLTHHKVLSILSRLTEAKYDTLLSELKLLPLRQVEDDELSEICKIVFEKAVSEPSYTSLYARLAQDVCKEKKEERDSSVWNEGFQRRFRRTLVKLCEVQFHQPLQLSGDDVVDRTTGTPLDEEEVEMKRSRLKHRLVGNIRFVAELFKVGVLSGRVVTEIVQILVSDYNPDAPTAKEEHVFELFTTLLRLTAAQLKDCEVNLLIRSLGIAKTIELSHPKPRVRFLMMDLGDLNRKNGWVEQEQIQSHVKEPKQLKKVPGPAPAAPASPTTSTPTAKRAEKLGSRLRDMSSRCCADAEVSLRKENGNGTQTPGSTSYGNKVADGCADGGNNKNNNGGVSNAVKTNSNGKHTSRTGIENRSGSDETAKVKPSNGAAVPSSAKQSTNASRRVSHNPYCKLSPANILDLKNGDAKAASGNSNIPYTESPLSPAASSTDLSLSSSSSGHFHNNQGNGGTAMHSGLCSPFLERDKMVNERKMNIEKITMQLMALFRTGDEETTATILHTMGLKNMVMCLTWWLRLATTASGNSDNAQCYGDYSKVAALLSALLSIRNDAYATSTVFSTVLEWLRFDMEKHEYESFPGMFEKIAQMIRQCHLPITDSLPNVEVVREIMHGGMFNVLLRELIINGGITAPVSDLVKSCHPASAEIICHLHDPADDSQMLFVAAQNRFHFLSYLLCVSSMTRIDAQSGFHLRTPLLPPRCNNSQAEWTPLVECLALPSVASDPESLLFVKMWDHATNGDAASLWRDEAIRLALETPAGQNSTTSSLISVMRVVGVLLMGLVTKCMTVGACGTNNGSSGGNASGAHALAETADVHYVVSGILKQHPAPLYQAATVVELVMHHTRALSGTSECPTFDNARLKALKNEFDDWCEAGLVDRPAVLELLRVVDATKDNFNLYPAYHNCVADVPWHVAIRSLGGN
UniProt Q57UX0: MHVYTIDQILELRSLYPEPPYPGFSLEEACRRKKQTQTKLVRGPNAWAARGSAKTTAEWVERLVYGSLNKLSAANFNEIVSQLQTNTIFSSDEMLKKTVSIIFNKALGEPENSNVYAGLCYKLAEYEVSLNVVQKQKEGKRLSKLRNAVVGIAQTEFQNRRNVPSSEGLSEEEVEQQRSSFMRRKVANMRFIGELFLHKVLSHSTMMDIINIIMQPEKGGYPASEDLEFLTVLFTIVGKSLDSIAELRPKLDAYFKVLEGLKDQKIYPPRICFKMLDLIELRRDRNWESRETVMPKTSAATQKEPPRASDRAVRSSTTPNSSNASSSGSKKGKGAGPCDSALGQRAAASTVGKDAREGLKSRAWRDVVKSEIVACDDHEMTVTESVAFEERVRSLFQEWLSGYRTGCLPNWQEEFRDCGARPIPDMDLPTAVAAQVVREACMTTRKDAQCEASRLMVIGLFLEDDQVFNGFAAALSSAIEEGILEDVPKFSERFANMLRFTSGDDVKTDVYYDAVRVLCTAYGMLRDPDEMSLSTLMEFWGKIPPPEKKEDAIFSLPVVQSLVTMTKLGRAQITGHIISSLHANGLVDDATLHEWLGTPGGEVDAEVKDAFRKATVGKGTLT
UniProt Q383M3: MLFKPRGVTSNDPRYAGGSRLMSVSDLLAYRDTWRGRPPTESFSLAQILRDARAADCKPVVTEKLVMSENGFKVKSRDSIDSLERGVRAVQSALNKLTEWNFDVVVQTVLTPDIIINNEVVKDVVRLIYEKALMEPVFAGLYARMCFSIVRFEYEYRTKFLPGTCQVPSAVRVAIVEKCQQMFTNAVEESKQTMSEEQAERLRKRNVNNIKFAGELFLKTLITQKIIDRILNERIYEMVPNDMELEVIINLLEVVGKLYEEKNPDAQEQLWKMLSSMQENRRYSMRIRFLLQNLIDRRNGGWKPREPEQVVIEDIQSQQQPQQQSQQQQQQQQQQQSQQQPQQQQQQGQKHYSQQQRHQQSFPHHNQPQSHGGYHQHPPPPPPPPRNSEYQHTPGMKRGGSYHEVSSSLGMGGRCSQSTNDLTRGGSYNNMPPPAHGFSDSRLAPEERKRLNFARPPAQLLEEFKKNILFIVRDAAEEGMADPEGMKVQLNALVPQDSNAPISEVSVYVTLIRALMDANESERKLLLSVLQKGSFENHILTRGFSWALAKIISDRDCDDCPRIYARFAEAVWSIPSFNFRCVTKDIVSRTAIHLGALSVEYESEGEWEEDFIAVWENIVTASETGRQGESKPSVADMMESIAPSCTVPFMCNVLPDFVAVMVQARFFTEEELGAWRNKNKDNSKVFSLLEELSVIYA
UniProt Q57VY5: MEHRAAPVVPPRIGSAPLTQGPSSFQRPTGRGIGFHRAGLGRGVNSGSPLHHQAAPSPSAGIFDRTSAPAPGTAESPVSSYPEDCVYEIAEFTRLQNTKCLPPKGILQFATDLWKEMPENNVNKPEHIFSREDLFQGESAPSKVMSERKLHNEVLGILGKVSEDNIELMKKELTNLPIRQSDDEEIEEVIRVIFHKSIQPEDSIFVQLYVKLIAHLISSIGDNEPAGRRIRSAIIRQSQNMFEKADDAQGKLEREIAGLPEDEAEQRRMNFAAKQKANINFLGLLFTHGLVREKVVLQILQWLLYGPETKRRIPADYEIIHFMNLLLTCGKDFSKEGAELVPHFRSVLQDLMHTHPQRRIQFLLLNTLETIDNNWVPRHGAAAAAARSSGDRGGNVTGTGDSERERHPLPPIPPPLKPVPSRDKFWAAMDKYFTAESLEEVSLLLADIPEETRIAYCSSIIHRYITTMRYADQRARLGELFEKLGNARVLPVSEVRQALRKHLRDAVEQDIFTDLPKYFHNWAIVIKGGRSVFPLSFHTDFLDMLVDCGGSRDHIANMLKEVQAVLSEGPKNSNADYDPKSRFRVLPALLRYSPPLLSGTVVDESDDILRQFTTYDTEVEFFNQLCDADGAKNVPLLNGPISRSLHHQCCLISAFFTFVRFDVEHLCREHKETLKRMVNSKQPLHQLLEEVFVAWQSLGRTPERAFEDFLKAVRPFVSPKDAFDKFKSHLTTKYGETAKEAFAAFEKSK
UniProt Q38E49: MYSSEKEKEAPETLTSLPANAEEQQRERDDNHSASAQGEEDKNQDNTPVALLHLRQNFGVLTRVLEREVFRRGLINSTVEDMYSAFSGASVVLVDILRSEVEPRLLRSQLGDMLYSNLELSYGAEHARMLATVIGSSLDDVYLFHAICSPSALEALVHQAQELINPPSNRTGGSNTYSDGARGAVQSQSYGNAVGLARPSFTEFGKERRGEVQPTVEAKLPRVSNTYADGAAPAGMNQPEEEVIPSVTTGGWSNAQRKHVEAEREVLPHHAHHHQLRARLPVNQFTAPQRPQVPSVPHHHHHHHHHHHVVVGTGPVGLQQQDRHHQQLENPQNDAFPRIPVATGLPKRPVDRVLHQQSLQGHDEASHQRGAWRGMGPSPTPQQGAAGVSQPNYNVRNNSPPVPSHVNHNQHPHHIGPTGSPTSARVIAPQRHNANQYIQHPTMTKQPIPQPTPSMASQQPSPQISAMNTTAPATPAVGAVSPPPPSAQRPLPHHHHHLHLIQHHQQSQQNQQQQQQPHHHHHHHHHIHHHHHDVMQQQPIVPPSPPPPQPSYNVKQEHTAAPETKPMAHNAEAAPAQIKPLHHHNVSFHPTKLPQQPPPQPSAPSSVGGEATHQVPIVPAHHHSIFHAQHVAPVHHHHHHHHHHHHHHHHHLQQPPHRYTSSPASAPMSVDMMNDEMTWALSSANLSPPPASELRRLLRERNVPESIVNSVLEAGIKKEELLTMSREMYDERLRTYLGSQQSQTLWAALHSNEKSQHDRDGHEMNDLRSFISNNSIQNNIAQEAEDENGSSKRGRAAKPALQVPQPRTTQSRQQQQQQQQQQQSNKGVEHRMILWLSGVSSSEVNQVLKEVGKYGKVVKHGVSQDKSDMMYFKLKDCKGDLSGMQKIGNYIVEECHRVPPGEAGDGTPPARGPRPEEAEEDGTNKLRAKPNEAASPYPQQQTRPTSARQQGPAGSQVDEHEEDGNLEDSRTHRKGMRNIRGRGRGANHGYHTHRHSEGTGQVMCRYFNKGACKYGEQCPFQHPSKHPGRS

Results are given in words; binding and its absence hold for the method and conditions named. In cells and extracts the contact can be indirect. These calls come from enrichment with a bait or labelling near it, and not all partners need be listed. For some assays here: No binding means not detected with the bait.

In assay [1] the target is PABP2-eYFP (T. brucei) (UniProt O96971). Description: affinity purification with mass spectrometry; PABP-eYFP captured from lysate of cryomilled procyclic cells with polyclonal anti-GFP llama antibodies on Dynabeads; low salt and high salt buffer, two replicates each; high confidence list: at least two-fold enriched over wild type control cells in all four experiments; label free quantification.

Assay [2] has as its target PABP1-eYFP (T. brucei) (UniProt Q38E63). The assay is described as above.
The target is the same in assay [3]. Description: affinity purification with mass spectrometry; As a1, results told for the low salt buffer: 20 mM HEPES pH 7.4, 50 mM NaCl, 1 mM MgCl2, 100 uM CaCl2, 0.1% CHAPS.
Assay [4] addresses PABP2-eYFP (T. brucei) (UniProt O96971). The assay is described as above.

Take “CCCH type zinc finger protein ZC3H41 (from UniProt Q386W1)”: the binding entry in assay [1] and in assay [2] was “binds” in each case.

Regarding “PABP2 (untagged, endogenous) (from UniProt O96971)”, in assay [2], the binding entry is “binds”.

With “RNA binding protein RBP23 (from UniProt Q389L2)”, the binding result in assay [1] is recorded as “no binding”; in assay [2], “binds”.

Turning to “RNA-binding protein Tb927.11.350 (G1-IP2) (from UniProt Q387L6)”, the binding entry in assay [1] is “binds”.

Regarding “Tb927.11.6720, an mRNA cap guanine-N7 methyltransferase (TbG1-IP) (from UniProt Q384Z7)”, in assay [1], the binding entry was “binds”.

Take eIF4A1 (from UniProt Q38F76): the binding result in assay [3] is reported as “binds”.

As for eIF4E1 (from UniProt Q386T3), the binding result in assay [4] is recorded as “binds”.

Turning to eIF4E3 (from UniProt Q383A4), the binding entry in assay [4] is reported as “binds”.

On to eIF4E4 (from UniProt Q585M4), for which the binding result in assay [1] and in assay [2] was “binds” throughout.

eIF4E5 (from UniProt Q38B99): the binding entry in assay [4] is on record as “binds”.

Turning to eIF4E6 (from UniProt Q57V43), the binding result in assay [4] is recorded as “binds”.

Regarding eIF4G1 (from UniProt Q57VB4), the binding result in assay [1] is “binds”.

Take eIF4G3 (from UniProt Q57UX0): the binding entry in assay [1] and in assay [2] was “binds” throughout.

Take eIF4G4 (from UniProt Q383M3): the binding result in assay [4] was “binds”.

In the case of eIF4G5 (from UniProt Q57VY5), the binding result in assay [4] is “binds”.

For “zinc finger protein ZC3H28 (from UniProt Q38E49)”, in assay [1], the binding entry is reported as “binds”.
